We go through 23 compounds from PubChem BioAssay AID214 (DTP/NCI, 2004).

The subject of this assay is B6C3F1 mice, colon carcinoma 38 s.c., T/C. Description: NCI In Vivo Anticancer Drug Screen. Data for tumor model Colon Carcinoma 38 (subcutaneous) in B6C3F1 mice. The following applies: T/C endpoint: median tumor weight (est.), higher T/C = larger tumour; for T/C: evaluated on day 20. The procedure:
The antitumor activity of compounds was measured in mice bearing transplantable tumors. Survival or tumor size were measured and the results are expressed as the measurement made in the treated group (T) divided by the measurement made in the vehicle treated control group (C). The tumor model used in this assay is Colon Carcinoma 38 (subcutaneous) in B6C3F1 mice

Setting [1] is: dose: 25.0 mg/kg/injection, schedule: Q07DX002 (ip), vehicle: saline with Tween-80.
[2] abbreviates: dose: 50.0 mg/kg/injection, schedule: Q07DX002 (ip), vehicle: saline with Tween-80.
The mark [3] stands for this setting: dose: 100.0 mg/kg/injection, schedule: Q07DX002 (ip), vehicle: saline with Tween-80.
Setting [4] is: dose: 200.0 mg/kg/injection, schedule: Q07DX002 (ip), vehicle: saline with Tween-80.
[5] abbreviates: dose: 400.0 mg/kg/injection, schedule: Q07DX002 (ip), vehicle: saline with Tween-80.
The mark [6] stands for this setting: dose: 200.0 mg/kg/injection, schedule: Q07DX002 (ip), vehicle: saline.
Where [7] appears, read: dose: 800.0 mg/kg/injection, schedule: Q07DX002 (ip), vehicle: Klucel (hydroxypropylcellulose) (HPC).
[8] abbreviates: dose: 25.0 mg/kg/injection, schedule: Q07DX002 (ip), vehicle: Klucel (hydroxypropylcellulose) (HPC).
Where [9] appears, read: dose: 50.0 mg/kg/injection, schedule: Q07DX002 (ip), vehicle: Klucel (hydroxypropylcellulose) (HPC).
Setting [10] is: dose: 100.0 mg/kg/injection, schedule: Q07DX002 (ip), vehicle: Klucel (hydroxypropylcellulose) (HPC).
Setting [11] is: dose: 200.0 mg/kg/injection, schedule: Q07DX002 (ip), vehicle: Klucel (hydroxypropylcellulose) (HPC).
The mark [12] stands for this setting: dose: 400.0 mg/kg/injection, schedule: Q07DX002 (ip), vehicle: Klucel (hydroxypropylcellulose) (HPC).
Where [13] appears, read: dose: 12.5 mg/kg/injection, schedule: Q07DX002 (ip), vehicle: Klucel (hydroxypropylcellulose) (HPC).

The structures appear in SMILES notation. The list shows only some results of the screen, not a fair sample: it gathers tests that were run many times, whatever their T/C, doses with no T/C, and many T/C values between a quarter and a half above the control. Other doses and runs of a compound stand elsewhere. T/C: endpoint of the treated group in % of that of the vehicle group. Schedules are NCI's codes, read here as Q, the interval in days (D) or hours (H), X, the number of doses. Some T/C values carry the count of animals alive at the toxicity check (mostly the fifth day); where none is given, no animal had died by that day. Some entries hold several experiments; their values stand side by side, smallest first. Some entries give survivors of the animals treated and no T/C: the source holds a T/C of zero for them, seemingly a mark for toxic or unscored doses. Counts of survivors are from the toxicity check (mostly the fifth day) where no day follows; animals may have died later.

Regarding `O=C(CCCN1CCC(C(O)c2ccc(F)cc2)CC1)c1ccc(F)cc1` (stereo not given), where the note is “dose: 6.25 mg/kg/injection, schedule: Q07DX002 (ip), vehicle: saline with Tween-80”, the T/C was 126 % of control. Further, the survivor count runs as follows: under setting [1], 5 of 10 on day 20; under setting [2], 0 of 10 on day 20; under setting [3], 0 of 10 on day 20; under setting [4], 0 of 10 on day 20; under setting [5], 0 of 10 on day 20.

As to `C[C@@](O)(/C=C/[C@H]1CC=CC(=O)O1)[C@@H](C[C@@H](O)\C=C/C=C\C=C\CO)OP(=O)(O)O`, the T/C is 138 % of control [9 of 10 alive on day 20] (dose: 3.12 mg/kg/injection, schedule: Q07DX002 (ip), vehicle: other) and 128 % of control (dose: 6.25 mg/kg/injection, schedule: Q07DX002 (ip), vehicle: other). Further, the survivor count runs as follows: (dose: 50.0 mg/kg/injection, schedule: Q07DX002 (ip), vehicle: other) 0 of 10 on day 20 and 4 of 10 on day 20; (dose: 100.0 mg/kg/injection, schedule: Q07DX002 (ip), vehicle: other) 0 of 10 on day 20; (dose: 200.0 mg/kg/injection, schedule: Q07DX002 (ip), vehicle: other) 0 of 10 on day 20.

Regarding `CCCCCCCCCCCCCCCCCCOCC(COP(=O)([O-])OCC[N+](C)(C)C)OC` (stereo not given), the survivor count under setting [6] is given as 0 of 10 on day 20.

Consider `COc1nc(C(Cl)(Cl)Cl)c(Cl)c(OC)c1Cl`, for which the survivor count under setting [7] is reported as 3 of 10 on day 20.

As to `COC(=O)C[C@](O)(CCC(C)(C)O)C(=O)O[C@@H]1C(OC)=C[C@]23CCCN2CCc2cc4c(cc2[C@H]13)OCO4`, the survivor count (dose: 8.0 mg/kg/injection, schedule: Q07DX002 (ip), vehicle: saline) is listed as 0 of 10 on day 20.

Consider `CCCCCC1c2cc(O)ccc2OC1N1CCOCC1` (stereo not given), for which, under setting [4], the T/C was 127 % of control.

For `COc1ccc(S(=O)(=O)N=N/C=C2\C=CC=CN2O)cc1OC`, the survivor count is on record as 4 of 10 on day 20 under setting [5] and 1 of 10 on day 20 (dose: 600.0 mg/kg/injection, schedule: Q07DX002 (ip), vehicle: saline with Tween-80).

Take `O=C(O)COc1cccc2c(=O)cc(-c3ccccc3)oc12`: the T/C (dose: 400.0 mg/kg/injection, schedule: Q07DX002 (ip), vehicle: saline) was 140 % of control.

Take `CCC/C=C/C=C/C(=O)OC1/C(=C/C(=O)OC)CC2CC(C(C)O)OC(=O)CC(O)CC3CC(OC(C)=O)C(C)(C)C(O)(CC4C/C(=C/C(=O)OC)CC(/C=C/C(C)(C)C1(O)O2)O4)O3` (stereo not given): the T/C (dose: 75.0 micrograms/kg/injection, schedule: Q07DX002 (ip), vehicle: saline + alcohol) is 127 % of control and the T/C (dose: 150.0 micrograms/kg/injection, schedule: Q07DX002 (ip), vehicle: saline + alcohol) is 136 % of control [9 of 10 alive on day 20]. The survivor count (dose: 600.0 micrograms/kg/injection, schedule: Q07DX002 (ip), vehicle: saline + alcohol) is listed as 0 of 10 on day 20.

`CCC1=C2C(=O)c3ccccc3C2=C(C)S(=O)(=O)O1`: the T/C is 145 % of control (dose: 12.5 mg/kg/injection, schedule: Q07DX002 (ip), vehicle: saline with Tween-80); 136 % of control [9 of 10 alive on day 20] under setting [1]; 130 % of control under setting [2]. In addition, the survivor count is, setting by setting: under setting [3], 5 of 10 on day 20; under setting [4], 0 of 10 on day 20.

Turning to `S=c1nc[nH]c2nc[nH]c12`, the T/C is, setting by setting: under setting [8], 18, 26, 39, 54, 58, 79, 98, 107, 124, 127 % of control; under setting [9], 16 [7 of 10 alive on day 20], 16 [9 of 10 alive on day 20], 20, 27, 38, 40, 44, 46 [9 of 10 alive on day 20], 76, 82 % of control; under setting [10], 3 [7 of 10 alive on day 20], 4, 5 [7 of 10 alive on day 20], 6, 9, 28 % of control; under setting [11], 5 [7 of 10 alive on day 20] and 34 % of control [7 of 10 alive on day 20]. Moreover, the survivor count under setting [8] is 3 of 10 on day 20; the survivor count under setting [9] is listed as 5 of 9 on day 20; the survivor count under setting [10] is recorded as 1 of 10 on day 20, 2 of 10 on day 20, 4 of 10 on day 20, 6 of 10 on day 20; the survivor count under setting [11] is 0 of 10 on day 20, 1 of 10 on day 20, 3 of 10 on day 20, 4 of 10 on day 20; the survivor count under setting [12] is 0 of 10 on day 20, 1 of 9 on day 20, 2 of 10 on day 20, 4 of 10 on day 20.

For `CC(C)CCC(=O)c1ccoc1`, the survivor count (dose: 4.0 mg/kg/injection, schedule: Q03HX006 (ip), vehicle: saline with Tween-80) is reported as 1 of 10 on day 20.

As to `N=C(N)CCCCCCCCC(=N)N`, the survivor count under setting [9] was 2 of 10 on day 20.

Regarding `NC(Cn1ccc(=O)c(O)c1)C(=O)O` (stereo not given), the T/C reads like this: (dose: 50.0 mg/kg/injection, schedule: Q07DX002 (ip), vehicle: saline) 148 % of control; under setting [6], 137 % of control.

With `CC1c2ccccc2CC(CCN(C)C)c2ccccc21` (stereo not given), under setting [3], the survivor count is on record as 6 of 10 on day 20.

On to `C=C1COC(O)(C2OCOC(C3CC(=O)NC(=O)C3)C2O)C1C` (stereo not given), for which the T/C (dose: 62.5 micrograms/kg/injection, schedule: Q07DX002 (ip), vehicle: water) is 140 % of control. Moreover, the survivor count (dose: 125.0 micrograms/kg/injection, schedule: Q07DX002 (ip), vehicle: water) was 4 of 10 on day 20 and the survivor count (dose: 250.0 micrograms/kg/injection, schedule: Q07DX002 (ip), vehicle: water) is 0 of 10 on day 20.

On to `CNC(=O)c1cccc2c(Nc3ccc(NS(C)(=O)=O)cc3OC)c3cccc(C)c3nc12`, for which the survivor count (dose: 100.0 mg/kg/injection, schedule: Q07DX002 (ip), vehicle: water) is 0 of 10 on day 20.

Turning to `COC(=O)Nc1nc2ccc(SC)cc2c(=O)[nH]1`, the T/C under setting [10] was 132 % of control. In addition, the survivor count under setting [7] was 4 of 10 on day 20.

Regarding `O=NN(CCF)C(=O)NC1CCCCC1`, the T/C is 125 % of control under setting [13] and 125 % of control under setting [8]. Further, the survivor count runs as follows: under setting [13], 6 of 10 on day 20; under setting [10], 0 of 10 on day 20 and 2 of 10 on day 20.

Consider `O=C(O)CSc1c(Cl)c(=O)oc2ccc(Cl)cc12`, for which, under setting [12], the survivor count is reported as 2 of 10 on day 20.

In the case of `NC(CCl)=NCC12CC3CC(CC(C3)C1)C2`, the survivor count under setting [11] is 2 of 7 on day 20 and 6 of 10 on day 20.

Regarding `COCCCNC1=C(C#N)C(=O)NC(c2cccc([N+](=O)[O-])c2)S1` (stereo not given), the T/C (dose: 1800.0 mg/kg/injection, schedule: Q07DX002 (ip), vehicle: saline with Tween-80) is 147 % of control [9 of 10 alive on day 20].

As to `C=C(Cl)C(=NC(C)(C)C)Nc1ccccc1C`, the survivor count by setting is: under setting [11], 1 of 10 on day 20; under setting [12], 2 of 10 on day 20.
